# Measured values as given in doi:10.1101/078337.
# Results are given in words; binding and its absence hold for the method and conditions named. Binding seen in cells or lysates may run through a third protein. Binding calls can cover weak binding; strength is not graded here. For part of these data: Sequences can lack the tags named with a protein.
# B1: endogenous SMN of Drosophila S2 cells (protein, UniProt Q9VV74 1-226)
# chain: MSDETNAAVWDDSLLVKTYDESVGLAREALARRLADSTNKREEENAAAAEEEAGEISATGGATSPEPVSFKVGDYARATYVDGVDYEGAVVSINEEKGTCVLRYLGYENEQEVLLVDLLPSWGKRVRREQFLIAKKDEDEQLSRPKASAGSHSKTPKSSRRSRISGGLVMPPMPPVPPMIVGQGDGAEQDFVAMLTAWYMSGYYTGLYQGKKEASTTSGKKKTPKK
# Columns and labels:
# [1] = target: T1, Flag-SMN (Drosophila SMN from the Flag-Smn^WT transgene) (Drosophila melanogaster) (UniProt Q9VV74); assay: co-IP
# T1 sequence: B1 chain
# [2] = target: Flag-Slmb (Drosophila Slmb, in S2 cells) (Drosophila); assay: co-IP
Molecule,binding [1],binding [2]
Tubulin (Drosophila),no binding,
"supernumerary limbs (Slmb), endogenous in Drosophila embryos",binds,
B1,,binds
